Screen size: about 400,000 compounds; about 13,000 (3.2%) were called active. Inconclusive means that the source gave no clear call. Such entries were picked first, then a sample of the others. The call rests on the fitted dose curve; in most records, active means well fitted cell-killing curve with a large enough effect; inconclusive means small, poorly fitted or top-dose-only effect, or effect the other way; inactive means flat fitted curve, though single readings scatter. Where the call is inconclusive, the potency comes from a doubtful curve fit.
assay: qHTS assay for MDR1-selective chemotherapeutics: Primary screen using the drug-selected MDR subline cells KB-V1; conditions: KB-V1 MDR cells viability, CellTiter-Glo, 72 h; activity change, negative = cytotoxicity: at 46.1 µM (top of the series); further: nearly all actives have a fitted effect of over 60% in size
Method in brief: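 qHTS viability screen in drug-selected KB-V1 MDR cells: 72 h compound treatment at 37 degrees C, ATP luminescence end point.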
On the % scale 0 is the no-effect control and ±100 the full control effect; potency means the concentration at half of the fitted maximal effect.

| Structure (SMILES) | Potency | activity change, negative = cytotoxicity |
| --- | --- | --- |
| COc1cc(C(=O)Nc2cc(OC)c(OC)c(OC)c2)ccc1OCc1c(C)noc1C | inconclusive: 25.9 µM [cytotoxic, single point] | – |
| Cc1ccc(CN2CC(C(=O)N(Cc3nnc(-c4ccccc4Cl)o3)C3CC3)CC2=O)cc1 (stereo not drawn) | inconclusive: 8.2 µM [cytotoxic, partial curve, poor fit] | – |
| COc1ccc(S(N)(=O)=O)cc1C(=O)OCCCOC(=O)c1cc(S(N)(=O)=O)ccc1OC | inconclusive: 0.651 µM [rising, full curve, poor fit] | – |
| CCc1nc2c(OCc3ccc(C(=O)OC)cc3)cccn2c1N(C)C(=O)c1ccc(C)cc1 | inconclusive: 25.9 µM [cytotoxic, single point] | – |
| COc1cc(C2c3cc4c(cc3C(OC3OC5COC(c6cccs6)OC5C(O)C3O)C3COC(=O)C23)OCO4)cc(OC)c1O (stereo not drawn) | inactive | – |
| Cc1ccc2[nH]c(=O)c(CNC(C)(C)C)cc2c1 | inactive | – |
| CCOC(=O)c1c(-c2ccc(F)cc2)csc1NC(=O)C1CCCO1 (stereo not drawn) | inconclusive: 16.4 µM [cytotoxic, single point] | – |
| CNS(=O)(=O)c1cccc(C(=O)OCC(=O)c2c(N)n(Cc3ccccc3)c(=O)n(C)c2=O)c1 | inconclusive: 32.6 µM [cytotoxic, single point] | – |
| O=C(Oc1ccc(C(=S)N2CCOCC2)cc1)c1ccc([N+](=O)[O-])cc1 | inconclusive: 18.4 µM [rising, single point] | – |
| CSc1nnc(NC(=O)c2nc(S(=O)(=O)Cc3ccccc3)ncc2Cl)s1 | inconclusive: 29.1 µM [cytotoxic, single point] | – |
| Cn1c(=O)n(C/C=C/c2ccccc2)c(=O)c2c1nc1n2CCCN1c1ccc(F)cc1 | inconclusive: 23.1 µM [cytotoxic, single point] | – |
| COC(=O)C(CCSC)NC(=O)c1c(C)oc2ncn(CC(C)C)c(=O)c12 (stereo not drawn) | inactive | – |
| CC(C)C(=O)N1CCN(S(=O)(=O)c2ccc3ccccc3c2)CC1 | inactive | – |
| Cc1ccc(S(=O)(=O)Nc2ccc(-c3nnc(SCc4ccccc4Cl)o3)cc2)cc1 | inconclusive: 16.4 µM [cytotoxic, partial curve] | – |
| COc1ccc(C(C#N)=C2C=C(Cl)C(=NO)C=C2Cl)cc1 | inactive | – |
| Cc1ccnc(NC(=O)c2cccc(NC(=O)Cc3ccccc3)c2)c1 | inconclusive: 10.3 µM [cytotoxic, partial curve, poor fit] | – |
| C[C@H](CO)N1C[C@H](C)[C@H](CN(C)C(=O)c2cc(-c3ccccc3)on2)OCc2cnnn2CCCC1=O | inactive | – |
| CCOC(=O)c1ccc(NC(=O)c2ccc3c(c2)NC(=O)c2ccccc2S3)cc1 | inconclusive: 29.1 µM [rising, single point] | – |
| CCC(CC)c1nnc(NC(=O)CCc2ccccc2OC)s1 | inactive | – |
| N#C/C(=C\c1cn(-c2ccccc2)nc1-c1cccnc1)c1nnc2n1CCCCC2 | inconclusive: 9.2 µM [cytotoxic, partial curve, poor fit] | – |
| CSC[C@H]1CN(Cc2ccccc2)C(=O)[C@@H]1CC(=O)Nc1ccc(Br)cc1 | inconclusive: 18.4 µM [cytotoxic, partial curve, poor fit] | – |
| O=C1NC(Cc2ccccc2)c2nc3ccc(Cl)cc3c(=O)n2-c2ncccc21 (stereo not drawn) | inactive | – |

A different layout for some results above:
COc1cc(C(=O)Nc2cc(OC)c(OC)c(OC)c2)ccc1OCc1c(C)noc1C
  Potency: inconclusive: 25.9 µM [cytotoxic, single point]
CSc1nnc(NC(=O)c2nc(S(=O)(=O)Cc3ccccc3)ncc2Cl)s1
  Potency: inconclusive: 29.1 µM [cytotoxic, single point]
CSC[C@H]1CN(Cc2ccccc2)C(=O)[C@@H]1CC(=O)Nc1ccc(Br)cc1
  Potency: inconclusive: 18.4 µM [cytotoxic, partial curve, poor fit]

Later entries.

| Structure (SMILES) | Potency | activity change, negative = cytotoxicity |
| --- | --- | --- |
| COc1ccc(/C=C2/SC(=S)N(c3ccc(S(=O)(=O)Nc4nccs4)cc3)C2=O)cc1 | inactive | – |
| COc1ccc(NC(=O)CCC(=O)c2cccs2)cc1S(=O)(=O)Nc1ccc(Cl)cc1 | active: 7.31 µM | – |
| c1ccc(Cn2c(NCc3ccco3)nc3ccccc32)cc1 | inconclusive: 16.4 µM [cytotoxic, partial curve, poor fit] | – |
| COc1ccc(-c2cc(C(F)(F)F)nc(SCC(=O)NCc3cnn(C)c3C)n2)cc1OC | active: 9.2 µM | – |
| COCCn1c(SCC(=O)NC2CCCC2)nc2ccccc2c1=O | – | inconclusive: -38.9% |
| CC1CCCC(NC(=O)COC(=O)c2ccc([N+](=O)[O-])o2)C1C (stereo not drawn) | inactive | – |
| COc1ccc(CCNC(=O)CC(C)S(=O)(=O)c2ccc3c(c2)NC(=O)CO3)cc1OC (stereo not drawn) | inconclusive: 23.1 µM [rising, single point] | – |
| CCc1ccc(C(O)c2ncc(-c3ccccc3C(F)(F)F)[nH]2)cc1 (stereo not drawn) | inconclusive: 29.1 µM [cytotoxic, single point] | – |
| O=S(=O)(Cc1ccc(Cl)cc1)N1CCN(Cc2ccccc2)CC1 | inactive | – |
| C#CCn1c(S(=O)(=O)Cc2ccc(F)cc2)nc(-c2ccccc2)c1-c1ccccc1 | active: 5.17 µM | – |
| Cc1nn(-c2ccccc2)c2[nH]c(=O)c(CNCc3ccc4c(c3)OCO4)cc12 | inconclusive: 29.1 µM [cytotoxic, single point] | – |
| O=C1CC(SCCc2nc3ccccc3[nH]2)C(=O)N1c1ccc(F)c(Cl)c1 (stereo not drawn) | inconclusive: 29.1 µM [rising, single point] | – |
| N#Cc1c(F)cccc1N1CCOCC1 | inconclusive: 29.1 µM [cytotoxic, single point] | – |
| Cc1ccc(N2C(=O)c3[nH]nc(-c4ccc(Cl)cc4)c3C2c2ccc(F)cc2)cc1 (stereo not drawn) | inconclusive: 20.6 µM [cytotoxic, single point] | – |
| CCOc1cc(NS(C)(=O)=O)c(OCC)cc1NC(=O)c1cccs1 | active: 9.2 µM | – |
| CS(=O)(=O)n1nc(OC(=O)c2cccc3ccccc23)cc1N | inactive | – |
| O=C(O)c1cccc(-n2nnnc2SCc2ccccc2Cl)c1 | inconclusive: 29.1 µM [rising, single point] | – |
| COc1ccc2nc(SCC(=O)c3c(C)[nH]c4ccccc34)nc(C)c2c1 | inconclusive: 20.6 µM [rising, partial curve, poor fit] | – |
| CCOc1ccc(N2C(=O)C3=C(C(c4ccc(Cl)cc4)=NCCN3)C2c2cccnc2)cc1 (stereo not drawn) | inactive | – |
| Cc1ccc(S(=O)(=O)Nc2cc(C(=O)NCCN3CCCC3)ccc2N2CCCCC2)cc1 | inconclusive: 29.1 µM [cytotoxic, single point] | – |
| O=c1[nH]nc(SCc2nc3ccccc3s2)n1C1CC1 | – | inconclusive: -5.67% |

Source: PubChem BioAssay AID1347076 (National Center for Advancing Translational Sciences (NCATS), 2019)
